Laboratory results: PubChem BioAssay AID1224830 (NIAID, 2016)
The deposit covers about 18,000 reagents; below is an unselected part. Over the whole deposit, about 2,900 (16%) were called active. 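Calls are made per well; low scores hint the gene aids the LPS response, high scores that it dampens it.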 Repeated entries: four replicate wells of each siRNA pool.

- Assay: 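Genes whose knock-down alters the TNF-alpha reporter response to LPS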 (primary screen)
- System: human THP-1 monocytic leukaemia cells, TNF dual-luciferase reporter clone, PMA-differentiated to macrophage-like cells
- Knock-down reagent: siRNA pool against human genes, 50 nM
- Timing: LPS for 4 h, given about 3 days after siRNA transfection
- Treatment: bacterial LPS (TLR4 ligand), 10 ng/ml
- Measured: 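Ratio of firefly to renilla light, scaled to the plate median and expressed as a robust z-score per replicate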
- Reading the numbers: TNF reporter robust z-score: higher = stronger TNF reporter response to LPS
- Call rule: 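Each well counts as active if its z-score is over 2.8 or under -1.5; controls are left without a call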

PRG3 (GeneID 10394) — TNF reporter robust z-score = 1.76; call = inactive
PRG3 (GeneID 10394) — TNF reporter robust z-score = 0.37; call = inactive
PRG3 (GeneID 10394) — TNF reporter robust z-score = 0.7; call = inactive
PRG3 (GeneID 10394) — TNF reporter robust z-score = 0.12; call = inactive
HSF5 (GeneID 124535) — TNF reporter robust z-score = -0.51; call = inactive
HSF5 (GeneID 124535) — TNF reporter robust z-score = -0.08; call = inactive
HSF5 (GeneID 124535) — TNF reporter robust z-score = 0.38; call = inactive
HSF5 (GeneID 124535) — TNF reporter robust z-score = -0.18; call = inactive
FASTK (GeneID 10922) — TNF reporter robust z-score = -0.95; call = inactive
FASTK (GeneID 10922) — TNF reporter robust z-score = -1.03; call = inactive
FASTK (GeneID 10922) — TNF reporter robust z-score = -0.84; call = inactive
FASTK (GeneID 10922) — TNF reporter robust z-score = -0.45; call = inactive
NECAB1 (GeneID 64168) — TNF reporter robust z-score = 0.37; call = inactive
NECAB1 (GeneID 64168) — TNF reporter robust z-score = 0.75; call = inactive
NECAB1 (GeneID 64168) — TNF reporter robust z-score = 0.55; call = inactive
NECAB1 (GeneID 64168) — TNF reporter robust z-score = 1.87; call = inactive
TNFRSF21 (GeneID 27242) — TNF reporter robust z-score = -0.68; call = inactive
TNFRSF21 (GeneID 27242) — TNF reporter robust z-score = 0.51; call = inactive
TNFRSF21 (GeneID 27242) — TNF reporter robust z-score = 1.16; call = inactive
VHLL (GeneID 391104) — TNF reporter robust z-score = 0.32; call = inactive
VHLL (GeneID 391104) — TNF reporter robust z-score = -0.49; call = inactive
VHLL (GeneID 391104) — TNF reporter robust z-score = 0.52; call = inactive
VHLL (GeneID 391104) — TNF reporter robust z-score = 0.6; call = inactive
GPER1 (GeneID 2852) — TNF reporter robust z-score = -1.22; call = inactive
GPER1 (GeneID 2852) — TNF reporter robust z-score = 0.65; call = inactive
GPER1 (GeneID 2852) — TNF reporter robust z-score = -0.36; call = inactive
GPER1 (GeneID 2852) — TNF reporter robust z-score = -0.52; call = inactive
HECA (GeneID 51696) — TNF reporter robust z-score = 1.6; call = inactive
HECA (GeneID 51696) — TNF reporter robust z-score = 2.36; call = inactive
HECA (GeneID 51696) — TNF reporter robust z-score = 4.1; call = active
HECA (GeneID 51696) — TNF reporter robust z-score = 3.84; call = active

5 successive reagents from above:
NECAB1 (GeneID 64168) — TNF reporter robust z-score = 0.55; call = inactive
NECAB1 (GeneID 64168) — TNF reporter robust z-score = 1.87; call = inactive
TNFRSF21 (GeneID 27242) — TNF reporter robust z-score = -0.68; call = inactive
TNFRSF21 (GeneID 27242) — TNF reporter robust z-score = 0.51; call = inactive
TNFRSF21 (GeneID 27242) — TNF reporter robust z-score = 1.16; call = inactive

The listing continues:
COXFA4 (GeneID 4697) — TNF reporter robust z-score = 0.33; call = inactive
COXFA4 (GeneID 4697) — TNF reporter robust z-score = 2.8; call = active
COXFA4 (GeneID 4697) — TNF reporter robust z-score = 0.67; call = inactive
COXFA4 (GeneID 4697) — TNF reporter robust z-score = 0.19; call = inactive
RNGTT (GeneID 8732) — TNF reporter robust z-score = -0.34; call = inactive
RNGTT (GeneID 8732) — TNF reporter robust z-score = 1.83; call = inactive
RNGTT (GeneID 8732) — TNF reporter robust z-score = 0.26; call = inactive
RNGTT (GeneID 8732) — TNF reporter robust z-score = -0.28; call = inactive
DUSP15 (GeneID 128853) — TNF reporter robust z-score = 1.2; call = inactive
DUSP15 (GeneID 128853) — TNF reporter robust z-score = 2.11; call = inactive
DUSP15 (GeneID 128853) — TNF reporter robust z-score = 0.91; call = inactive
DUSP15 (GeneID 128853) — TNF reporter robust z-score = 0.68; call = inactive
MUC2 (GeneID 4583) — TNF reporter robust z-score = -0.69; call = inactive
MUC2 (GeneID 4583) — TNF reporter robust z-score = -0.25; call = inactive
MUC2 (GeneID 4583) — TNF reporter robust z-score = -1.08; call = inactive
MUC2 (GeneID 4583) — TNF reporter robust z-score = -0.14; call = inactive
